Laboratory results as given in paper doi:10.1101/2024.03.06.583600.
Results are given in words; binding and its absence hold for the method and conditions named. In cells and extracts the contact can be indirect. Some binding calls cover weakened binding; strength is not graded here.

Chains of the proteins cited; added tags and fusions are not shown.
UniProt Q05397: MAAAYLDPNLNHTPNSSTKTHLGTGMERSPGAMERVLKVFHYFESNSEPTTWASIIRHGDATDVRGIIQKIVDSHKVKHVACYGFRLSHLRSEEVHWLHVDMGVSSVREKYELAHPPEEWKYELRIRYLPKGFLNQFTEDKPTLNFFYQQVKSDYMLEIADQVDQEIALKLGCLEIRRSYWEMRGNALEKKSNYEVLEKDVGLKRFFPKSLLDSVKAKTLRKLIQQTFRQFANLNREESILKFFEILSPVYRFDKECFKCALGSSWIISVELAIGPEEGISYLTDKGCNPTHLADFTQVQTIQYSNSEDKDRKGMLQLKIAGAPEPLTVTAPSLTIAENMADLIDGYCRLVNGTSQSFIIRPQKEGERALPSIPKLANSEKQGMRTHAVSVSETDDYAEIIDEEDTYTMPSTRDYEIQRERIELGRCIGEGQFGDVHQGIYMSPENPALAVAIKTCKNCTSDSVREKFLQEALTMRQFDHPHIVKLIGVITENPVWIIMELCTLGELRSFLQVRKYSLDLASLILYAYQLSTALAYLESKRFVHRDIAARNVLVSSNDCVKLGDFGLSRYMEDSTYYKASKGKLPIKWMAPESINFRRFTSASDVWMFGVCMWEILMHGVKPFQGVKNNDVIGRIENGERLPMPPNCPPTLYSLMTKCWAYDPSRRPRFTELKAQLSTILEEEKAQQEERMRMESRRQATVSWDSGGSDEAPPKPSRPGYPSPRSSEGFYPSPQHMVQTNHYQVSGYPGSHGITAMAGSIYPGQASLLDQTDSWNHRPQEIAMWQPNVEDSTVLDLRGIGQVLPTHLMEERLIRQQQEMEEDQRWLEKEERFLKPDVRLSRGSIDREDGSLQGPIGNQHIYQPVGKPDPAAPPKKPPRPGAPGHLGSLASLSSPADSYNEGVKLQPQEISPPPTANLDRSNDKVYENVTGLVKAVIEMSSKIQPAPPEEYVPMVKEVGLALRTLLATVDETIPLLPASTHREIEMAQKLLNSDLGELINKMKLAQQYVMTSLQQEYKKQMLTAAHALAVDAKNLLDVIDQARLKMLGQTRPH

Target: T1, human cell-division cycle 14A phosphatase (CDC14A) (human (endogenous in CASMCs)) (UniProt Q9UNH5)
T1 sequence: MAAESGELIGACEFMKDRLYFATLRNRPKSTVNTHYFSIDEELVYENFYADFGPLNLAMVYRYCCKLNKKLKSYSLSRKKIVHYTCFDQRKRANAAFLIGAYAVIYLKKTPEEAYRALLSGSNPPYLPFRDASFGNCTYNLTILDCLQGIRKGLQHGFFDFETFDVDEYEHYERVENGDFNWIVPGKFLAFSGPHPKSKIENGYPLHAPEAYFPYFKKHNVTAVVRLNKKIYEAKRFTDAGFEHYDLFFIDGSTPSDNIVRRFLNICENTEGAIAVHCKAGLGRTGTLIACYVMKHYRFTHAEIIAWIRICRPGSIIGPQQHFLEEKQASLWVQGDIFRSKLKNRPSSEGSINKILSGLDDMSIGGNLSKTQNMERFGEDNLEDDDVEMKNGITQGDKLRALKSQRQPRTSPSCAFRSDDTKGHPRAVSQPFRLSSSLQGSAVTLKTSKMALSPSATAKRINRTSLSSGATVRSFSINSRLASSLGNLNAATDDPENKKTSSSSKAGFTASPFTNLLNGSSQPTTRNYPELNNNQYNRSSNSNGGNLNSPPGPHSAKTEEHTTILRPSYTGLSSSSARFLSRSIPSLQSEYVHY
Assay: proximity ligation

binding	Substance
binds	focal adhesion kinase (FAK) (from UniProt Q05397 1-1052) (enzyme)
binds	focal adhesion kinase phosphorylated at Tyr397 (FAK-pY397) (from UniProt Q05397 1-1052) (enzyme)
